Laboratory results as given in PubChem BioAssay AID252 (DTP/NCI, 2004).
The list shows only some results of the screen, not a fair sample: it gathers tests that were run many times, whatever their T/C, doses with no T/C, and many T/C values between a quarter and a half above the control. Further doses and runs are listed elsewhere. T/C is the treated group as % of the vehicle group. Some doses have a count of surviving animals in place of a T/C: the source holds a T/C of zero for them, seemingly a mark for toxic or unscored doses. Some doses without a T/C left all or most animals alive at the check, yet need not have been tolerated: the source hardly ever lists a survival T/C far under the control, and the zero likely stands for such cases as well. Survivors were counted at the toxicity check, usually on the fifth day, unless a day is given; later deaths do not show. Schedule codes are those of the source, taken here to give the interval after Q, in days (D) or hours (H), and the number of doses after X. Some schedules carry Z or #; the key to these is not given. Where survival is the endpoint, this PubChem deposit counts one and a half times the control or more as active, and values a quarter to a half above the control carry no call in these data; other NCI protocols may use other cut-offs. Some T/C values carry the count of animals alive at the toxicity check (mostly the fifth day); where none is given, no animal had died by that day. Some doses were run more than once; the values are given in rising order.

Test system: BDF1 mice, intracerebral L1210 leukemia, survival T/C
Assay: NCI In Vivo Anticancer Drug Screen. Data for tumor model L1210 Leukemia (intracerebral) in B6D2F1 (BDF1) mice
Conditions: T/C endpoint: mean survival time, higher T/C = longer survival
Method in brief: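 Mice carrying transplanted tumour were dosed with compound; survival was recorded and expressed as treated-group value (T) divided by vehicle-control value (C).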

Structure (SMILES): O=NN(CCCl)C(=O)NC1CCCCC1
- T/C (dose: 4.0 mg/kg/injection, schedule: Q01DX009 (ip), vehicle: carboxymethylcellulose (CMC)): 143 % of control
- T/C (dose: 4.0 mg/kg/injection, schedule: Q01DX Z (ip), vehicle: carboxymethylcellulose (CMC)): 140 % of control
- T/C (dose: 8.0 mg/kg/injection, schedule: Q01DX Z (ip), vehicle: carboxymethylcellulose (CMC)): 143 % of control
- T/C (dose: 10.0 mg/kg/injection, schedule: Q01DX001 (ip), vehicle: carboxymethylcellulose (CMC), evaluated on day 30): 140 % of control
- T/C (dose: 10.0 mg/kg/injection, schedule: Q01DX001 (ip), vehicle: carboxymethylcellulose (CMC), evaluated on day 45): 114, 117, 141 % of control
- T/C (dose: 12.5 mg/kg/injection, schedule: Q01DX001 (ip), vehicle: carboxymethylcellulose (CMC)): 146 % of control [9 of 10 alive]
- T/C (dose: 18.0 mg/kg/injection, schedule: Q01DX001 (ip), vehicle: carboxymethylcellulose (CMC)): 141 % of control
- T/C (dose: 18.5 mg/kg/injection, schedule: Q01DX001 (ip), vehicle: carboxymethylcellulose (CMC)): 129 % of control
- T/C (dose: 20.0 mg/kg/injection, schedule: Q01DX001 (ip), vehicle: carboxymethylcellulose (CMC)): 149 % of control
- T/C (dose: 21.0 mg/kg/injection, schedule: Q01DX001 (ip), vehicle: carboxymethylcellulose (CMC), evaluated on day 45): 206 and 241 % of control
- T/C (dose: 21.0 mg/kg/injection, schedule: Q01DX001 (ip), vehicle: carboxymethylcellulose (CMC), run until all animals had died): 126 and 144 % of control
- T/C (dose: 25.0 mg/kg/injection, schedule: Q01DX001 (ip), vehicle: carboxymethylcellulose (CMC)): 150, 281, 284, 309 % of control
- T/C (dose: 31.0 mg/kg/injection, schedule: Q01DX Z (ip), vehicle: carboxymethylcellulose (CMC)): 139 % of control
- T/C (dose: 32.0 mg/kg/injection, schedule: Q01DX009 (ip), vehicle: carboxymethylcellulose (CMC)): 140 % of control [9 of 10 alive]
- T/C (dose: 40.0 mg/kg/injection, schedule: Q01DX001 (ip), vehicle: carboxymethylcellulose (CMC), evaluated on day 30): 314 % of control
- T/C (dose: 40.0 mg/kg/injection, schedule: Q01DX001 (ip), vehicle: carboxymethylcellulose (CMC), evaluated on day 45): 186 and 476 % of control
- T/C (dose: 40.0 mg/kg/injection, schedule: Q01DX001 (ip), vehicle: carboxymethylcellulose (CMC), run until all animals had died): 379 % of control
- T/C (dose: 50.0 mg/kg/injection, schedule: Q01DX001 (ip), vehicle: carboxymethylcellulose (CMC), evaluated on day 45): 415, 434 [9 of 10 alive], 497 % of control
- T/C (dose: 50.0 mg/kg/injection, schedule: Q01DX001 (ip), vehicle: carboxymethylcellulose (CMC), run until all animals had died): 267, 282, 316, 330, 340 % of control
- survivor count (dose: 64.0 mg/kg/injection, schedule: Q01DX009 (ip), vehicle: carboxymethylcellulose (CMC)): 10 of 10
- T/C (dose: 70.0 mg/kg/injection, schedule: Q01DX001 (ip), vehicle: carboxymethylcellulose (CMC)): 141 % of control [9 of 10 alive]
- survivor count (dose: 97.0 mg/kg/injection, schedule: Q01DX001 (oral), vehicle: carboxymethylcellulose (CMC)): 10 of 10
- survivor count (dose: 125.0 mg/kg/injection, schedule: Q01DX Z (ip), vehicle: carboxymethylcellulose (CMC)): 4 of 10
- survivor count (dose: 144.0 mg/kg/injection, schedule: Q01DX001 (ip), vehicle: carboxymethylcellulose (CMC)): 10 of 10
- survivor count (dose: 150.0 mg/kg/injection, schedule: Q01DX001 (ip), vehicle: carboxymethylcellulose (CMC)): 10 of 10
- survivor count (dose: 160.0 mg/kg/injection, schedule: Q01DX001 (ip), vehicle: carboxymethylcellulose (CMC)): 7 of 10
- survivor count (dose: 225.0 mg/kg/injection, schedule: Q01DX001 (ip), vehicle: carboxymethylcellulose (CMC)): 9 of 10
- survivor count (dose: 288.0 mg/kg/injection, schedule: Q01DX001 (ip), vehicle: carboxymethylcellulose (CMC)): 4 of 10

Structure (SMILES): CC(Cl)CN(N=O)C(=O)NC1CCCCC1 (stereo not drawn)
- T/C (dose: 375.0 mg/kg/injection, schedule: Q01DX001 (ip), vehicle: other): 134 % of control
- T/C (dose: 500.0 mg/kg/injection, schedule: Q01DX001 (ip), vehicle: other): 127 % of control
- T/C (dose: 750.0 mg/kg/injection, schedule: Q01DX001 (ip), vehicle: other): 130 % of control
- survivor count (dose: 1000.0 mg/kg/injection, schedule: Q01DX001 (ip), vehicle: other): 6 of 10

Structure (SMILES): Cc1ncc(CNC(=O)N(CCCl)N=O)c(N)n1
- T/C (dose: 3.13 mg/kg/injection, schedule: Q01DX009 (ip), vehicle: saline): 125 % of control
- T/C (dose: 12.5 mg/kg/injection, schedule: Q01DX001 (ip), vehicle: saline): 125 % of control
- T/C (dose: 25.0 mg/kg/injection, schedule: Q01DX009 (ip), vehicle: saline): 133 % of control [5 of 6 alive]
- survivor count (dose: 50.0 mg/kg/injection, schedule: Q01DX009 (ip), vehicle: saline): 5 of 6

Structure (SMILES): CN(N=O)C(=O)NCCCCCNC(=O)N(C)N=O
- survivor count (dose: 840.0 mg/kg/injection, schedule: Q01DX001 (ip), vehicle: carboxymethylcellulose (CMC)): 5 of 10
- survivor count (dose: 1680.0 mg/kg/injection, schedule: Q01DX001 (ip), vehicle: carboxymethylcellulose (CMC)): 0 of 10
- survivor count (dose: 3360.0 mg/kg/injection, schedule: Q01DX001 (ip), vehicle: carboxymethylcellulose (CMC)): 0 of 10

Structure (SMILES): NC(=O)N(CCCl)N=O
- T/C (dose: 1.5 mg/kg/injection, schedule: Q01DX001 (ip), vehicle: carboxymethylcellulose (CMC)): 126 and 133 % of control
- T/C (dose: 2.25 mg/kg/injection, schedule: Q01DX001 (ip), vehicle: carboxymethylcellulose (CMC)): 134 and 139 % of control
- T/C (dose: 3.35 mg/kg/injection, schedule: Q01DX001 (ip), vehicle: carboxymethylcellulose (CMC)): 141 and 145 % of control
- T/C (dose: 3.6 mg/kg/injection, schedule: Q01DX001 (ip), vehicle: saline): 148 % of control [9 of 10 alive]
- survivor count (dose: 7.5 mg/kg/injection, schedule: Q01DX001 (ip), vehicle: carboxymethylcellulose (CMC)): 9 of 10
- survivor count (dose: 14.0 mg/kg/injection, schedule: Q01DX001 (ip), vehicle: saline): 9 of 10
- survivor count (dose: 14.4 mg/kg/injection, schedule: Q01DX001 (ip), vehicle: saline): 10 of 10
- survivor count (dose: 28.8 mg/kg/injection, schedule: Q01DX001 (ip), vehicle: saline): 5 of 10

Structure (SMILES): O=NN(CCF)C(=O)Nc1c[nH]c(=O)[nH]c1=O
- survivor count (dose: 30.0 mg/kg/injection, schedule: Q01DX001 (ip), vehicle: carboxymethylcellulose (CMC)): 5 of 10
